Test results: article PMC10542812
Results are given in words; binding and its absence hold for the method and conditions named. Some results given as binding are weak or reduced against the parent protein; the word gives no strength.

Amino acid sequences for entries named in this document (tags omitted). A change or cut given only in a name is not applied to a line headed by its entry. Residues count along the entry.
CK1δ kinase domain (P48730, residues 1-294): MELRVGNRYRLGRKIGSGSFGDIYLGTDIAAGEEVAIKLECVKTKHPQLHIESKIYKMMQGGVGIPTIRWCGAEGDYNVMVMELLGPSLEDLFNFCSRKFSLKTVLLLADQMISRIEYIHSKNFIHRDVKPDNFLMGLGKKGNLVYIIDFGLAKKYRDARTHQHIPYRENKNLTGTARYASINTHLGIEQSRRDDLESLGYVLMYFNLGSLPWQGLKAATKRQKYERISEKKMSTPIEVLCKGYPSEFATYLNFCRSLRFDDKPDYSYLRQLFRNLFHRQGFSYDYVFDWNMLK
C-terminal domain of CK1δ (R324 to R415), non-phosphorylated (P48730, residues 324-415): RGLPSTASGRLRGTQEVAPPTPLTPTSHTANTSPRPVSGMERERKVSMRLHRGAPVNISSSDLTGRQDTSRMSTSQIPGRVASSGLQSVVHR

Biological target: C-terminal domain of CK1δ (R324 to R415), non-phosphorylated (human) (UniProt P48730)
Assay: NMR titration; unlabelled kinase domain titrated to the 15N-labelled C-terminal domain; [15N,1H]-BEST-TROSY-HSQC; 50 mM Bis-Tris pH 6.5, 50 mM NaCl, 10 mM MgCl2, 0.5 mM TCEP; 298 K; raising the salt from 50 to 150 mM had almost no effect; both purified

- binding: binds weakly
Substance: CK1δ kinase domain (from UniProt P48730 1-294) (domain or fragment)
